# System: P. aeruginosa PAO1
# Assay: Untargeted NMR-based metabolomics, planktonic versus biofilm
# Parameters: species or system Pseudomonas aeruginosa
# Conditions: for Biofilm Average Metabolite Peak Volume: PAO1 biofilm lawn on LB agar, 48 hrs; for Biofilm Average Metabolite Peak Volume / Plank Average Metabolite Peak Volume: n=9, 2D 13C-1H HSQC; for Plank Average Metabolite Peak Volume: PAO1 planktonic culture in LB, 24 hrs; for Fold change (Biofilm/Planktonic): metabolite quantity, biofilm relative to planktonic, n=9
SMILES,Biofilm Average Metabolite Peak Volume,Plank Average Metabolite Peak Volume,Fold change (Biofilm/Planktonic),Fold change (Biofilm/Planktonic) (listed as 5-aminopentanoic acid),Fold change (Biofilm/Planktonic) (listed as cadaverine),Fold change (Biofilm/Planktonic) (listed as glutaric acid)
NCCCCC(=O)O [5-Aminopentanoic acid],5.967E+08,4.143E+09,0.144,0.14,–,–
CC(=O)O [Acetic acid],1.080E+08,3.665E+08,0.295,–,–,–
CC(C)=O [Acetone],8.980E+07,1.995E+07,4.501,–,–,–
C[N+](C)(C)CC(=O)O [Betaine],3.740E+10,7.741E+10,0.483,–,–,–
NCCCCCN [Cadaverine],1.945E+07,9.230E+08,0.021,–,0.02,–
CN(C)CC(=O)O [Dimethylglycine],2.424E+08,8.101E+07,2.992,–,–,–
OC[C@@H](O)[C@@H](O)CO [Erythritol],1.197E+08,1.995E+07,6.000,–,–,–
O=C(O)[C@H](O)[C@@H](O)[C@H](O)[C@H](O)CO [Gluconic acid],2.029E+09,1.995E+07,101.704,–,–,–
O=C(O)CCCC(=O)O [Glutaric acid],1.388E+08,2.981E+09,0.047,–,–,0.05
CCCCCC(=O)O [Hexanoic acid],1.945E+07,3.592E+08,0.054,–,–,–
O=S(=O)(O)CCO [Isethionic acid],4.467E+07,1.995E+07,2.239,–,–,–
CSC[C@H](N)C(=O)O [L-Methylcysteine],1.574E+08,2.386E+07,6.597,–,–,–
CC(C)[C@H](N)C(=O)O [L-Valine],7.037E+08,2.732E+09,0.258,–,–,–
CC(O)C(=O)O (stereo not shown) [Lactic acid],1.945E+07,2.022E+08,0.096,–,–,–
OC[C@H]1O[C@H](O[C@H]2[C@H](O)[C@@H](O)[C@@H](O[C@H]3[C@H](O)[C@@H](O)[C@@H](O[C@H]4[C@H](O)[C@@H](O)C(O)O[C@@H]4CO)O[C@@H]3CO)O[C@@H]2CO)[C@H](O)[C@@H](O)[C@@H]1O (stereo partly shown) [Maltotetraose],6.228E+08,8.006E+07,7.779,–,–,–
CC(=O)N[C@@H](C)C(=O)O [N-Acetyl-L-Alanine],6.816E+08,2.600E+08,2.622,–,–,–
O=C(O)c1cccnc1 [Nicotinic acid],8.133E+07,2.732E+07,2.977,–,–,–
O=c1cc[nH]c(=O)[nH]1 [Uracil],8.863E+07,1.897E+08,0.467,–,–,–
CCC(N)C(=O)O (stereo not drawn) [alpha-Aminobutyric acid],7.573E+07,1.248E+09,0.061,–,–,–
OC[C@H]1O[C@H](O)[C@H](O)[C@@H](O)[C@@H]1O [alpha-Glucose],9.524E+08,3.402E+08,2.800,–,–,–
OC[C@H]1O[C@H](O[C@H]2O[C@H](CO)[C@@H](O)[C@H](O)[C@H]2O)[C@H](O)[C@@H](O)[C@@H]1O [alpha-Trehalose],5.259E+09,1.972E+08,26.668,–,–,–
NCCC(=O)O [beta-Alanine],5.638E+08,1.543E+08,3.654,–,–,–
OC[C@H]1O[C@@H](O)[C@H](O)[C@@H](O)[C@@H]1O [beta-Glucose],1.175E+09,3.022E+08,3.888,–,–,–
OC[C@H]1O[C@@H](O)[C@@H](O)[C@@H](O)[C@@H]1O [beta-Mannose],4.034E+07,2.352E+08,0.172,–,–,–
NCCCC[C@H](N)C(=O)O [lysine],–,–,0.69,–,–,–
Cc1ccc(C(=O)O)cc1 [p-Toluic acid],1.207E+08,3.653E+07,3.304,–,–,–
